PubChem BioAssay AID1487 (National Center for Advancing Translational Sciences (NCATS), 2009)
The list shows a part of the results. These are further read-outs of the screen, such as a control signal, another cell line or another target. No call is given for them. Compounds called inactive in the main read-out are mostly missing here. Words in brackets tell the shape of the fitted curve; partial curves, single points and poor fits give uncertain potencies.

Test: qHTS Assay for Modulators of Lamin A Splicing
Details: HeLa LMNA splicing GFP/RFP minigene ratio, 48 h
Summary of the method: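 S3 HeLa cells stably expressing lamin A-EGFP splicing minigene plus DsRed2, 600 cells/well, 48 h compound exposure at 37C. Laser-scanning cytometry; analysed as GFP (500-530 nm)/RFP (575-640 nm) total intensity ratio; 0.5% DMSO vehicle.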

[1] = measured here: RFP viability control channel
[2] = measured here: GFP splicing reporter channel

In the case of `CC(C)(C)NS(=O)(=O)c1ccc(NC(=O)C2CCCCC2)cc1`, the AC50 [1] is reported as 35.5 µM [falling, partial curve].

In the case of `CCOc1cc2[nH]c(=O)n(CCCCC(=O)N3CCN(c4ccc(OC)cc4)CC3)c(=O)c2cc1OCC`, the AC50 [2] is reported as 0.708 µM [falling, full curve, poor fit] and the AC50 [1] is reported as 3.98 µM [falling, full curve, poor fit].

With `O=S(=O)(O)c1ccc2c(N=Nc3ccc(S(=O)(=O)O)c4ccccc34)c(O)c(S(=O)(=O)O)cc2c1` the AC50 [2] was 0.0355 µM [rising, full curve, poor fit].

With `COC(=O)c1cc(NC(=O)CCc2c(C)nc3ncnn3c2C)cc(C(=O)OC)c1` the AC50 [2] was 0.0708 µM [falling, partial curve, poor fit] and the AC50 [1] was 0.0501 µM [falling, partial curve, poor fit].

With `O=C1CCCc2cc(S(=O)(=O)N3CCCC(C(=O)Nc4ccc(F)c(Cl)c4)C3)ccc2N1` (configuration not stated) the AC50 [2] was 11.2 µM [falling, partial curve] and the AC50 [1] was 35.5 µM [falling, partial curve].

In the case of `CC(C)c1nc2sc3c(=O)[nH]c(=S)[nH]c3c2c2c1CCC2`, the AC50 [1] is reported as 0.0891 µM [rising, full curve, poor fit].

With `CSC(=NS(=O)(=O)c1ccccc1)SC` the AC50 [2] was 35.5 µM [rising, single point] and the AC50 [1] was 25.1 µM [rising, single point].

In the case of `CCN(CC)S(=O)(=O)c1ccc(Cl)c(C(=O)Nc2nnc(C)s2)c1`, the AC50 [2] is reported as 35.5 µM [rising, single point] and the AC50 [1] is reported as 31.6 µM [rising, single point].

In the case of `C=CCNCC(=O)N1N=C(c2ccc3ccccc3c2)CC1c1ccc(OC)cc1` (configuration not stated), the AC50 [2] is reported as 0.501 µM [falling, partial curve, poor fit].

For `Cc1cccc(NC(=O)N2CCN(C(=O)c3nsc4ccccc34)CC2)c1C`, the AC50 [2] was 0.0251 µM [rising, full curve, poor fit].

With `Cc1cc(C)nc(SC(C)C(=O)O)n1` (configuration not stated) the AC50 [1] was 11.2 µM [rising, partial curve].

In the case of `CCC1(C)CC(c2nc(-c3ccc(OC)cc3)cs2)CCS1` (configuration not stated), the AC50 [2] is reported as 35.5 µM [rising, single point] and the AC50 [1] is reported as 35.5 µM [rising, single point].

With `CCOC(=O)N/N=C/c1ccc(OCCSc2ccc(Cl)cc2)c(OCC)c1` the AC50 [1] was 14.1 µM [rising, single point].

For `Cn1c(CC(=O)NC(C)(C)CO)c(Sc2ccccc2)c2ccccc21`, the AC50 [1] was 12.6 µM [rising, single point].

In the case of `COc1ccc2oc(=O)c(-c3csc(Nc4cccc(O)c4)n3)cc2c1`, the AC50 [2] is reported as 35.5 µM [rising, single point] and the AC50 [1] is reported as 25.1 µM [rising, partial curve].

For `CC(C)CCN1CCN(Cc2cccc3cccnc23)CC1CCO` (configuration not stated), the AC50 [1] was 0.02 µM [falling, full curve, poor fit].

For `CCc1cccc(NC(=O)CCCSc2nc3ccccc3[nH]2)c1`, the AC50 [2] was 17.8 µM [rising, partial curve, poor fit] and the AC50 [1] was 15.8 µM [rising, partial curve].

In the case of `Cc1ncsc1CCC(=O)N1CCCC(C(=O)c2cccc(Cl)c2)C1` (configuration not stated), the AC50 [1] is reported as 12.6 µM [falling, partial curve].

In the case of `O=c1[nH]c(=O)c2nnc(N/N=C\c3ccc(O)cc3)nc2[nH]1`, the AC50 [2] is reported as 0.0631 µM [rising, full curve, poor fit].

In the case of `COC(=O)Nc1nc(-c2ccccc2)c(C(=O)c2ccc(Cl)cc2)s1`, the AC50 [2] is reported as 0.2 µM [falling, full curve, poor fit] and the AC50 [1] is reported as 3.55 µM [rising, single point].

In the case of `COc1ccc(CN(C)CC(=O)Nc2ccc(Cl)cc2C(F)(F)F)c(OC)c1`, the AC50 [1] is reported as 14.1 µM [rising, partial curve].

In the case of `O=C(NCc1cccs1)c1ccc2c(c1)ncn2C1CCCC1`, the AC50 [1] is reported as 0.0501 µM [falling, full curve, poor fit].

With `CC(=O)NCc1cc(-c2ccc(Cl)cc2)no1` the AC50 [2] was 0.0708 µM [rising, full curve, poor fit].

With `Nc1c(C(=O)NCc2ccc(F)cc2)c2nc3ccccc3nc2n1CCCN1CCOCC1` the AC50 [2] was 20 µM [falling, partial curve] and the AC50 [1] was 12.6 µM [falling, partial curve, poor fit].

In the case of `CSc1nc(Sc2cccc(Cl)c2)c2ccccc2n1`, the AC50 [2] is reported as 35.5 µM [falling, single point] and the AC50 [1] is reported as 35.5 µM [falling, single point].

For `COc1ccc(-c2ccc(CCC(=O)O)o2)cc1`, the AC50 [2] was 10 µM [falling, partial curve].

With `CCOc1ccc(NC(=O)CCC(=O)OC)cc1` the AC50 [2] was 35.5 µM [rising, single point].

In the case of `CC(C)OC(=O)N(C)c1ccc(C(O)(C(F)(F)F)C(F)(F)F)cc1`, the AC50 [1] is reported as 0.398 µM [rising, full curve, poor fit].

In the case of `CCc1c(C)sc2c1CCN(C(=O)Nc1ccccc1C(=O)OC)C2c1ccc(F)cc1` (configuration not stated), the AC50 [2] is reported as 0.112 µM [rising, full curve, poor fit] and the AC50 [1] is reported as 1.26 µM [rising, full curve].

For `Cc1ccc(-c2[nH]nc(N)c2N=Nc2ccccc2C)cc1`, the AC50 [2] was 22.4 µM [falling, single point] and the AC50 [1] was 22.4 µM [falling, partial curve].

For `CCOC(=O)C(C(=O)OCC)N(C#N)c1nc(N(C)C)nc(N(C)C)n1`, the AC50 [2] was 0.01 µM [rising, full curve, poor fit].

In the case of `CCCOc1ccc2c3c(c(=O)oc2c1OCCC)CCCC3`, the AC50 [2] is reported as 35.5 µM [falling, single point].

With `C=CCOc1c(Br)cc(CNc2ccc(NC(=O)C(C)C)c(OC)c2)cc1OCC` the AC50 [1] was 1.41 µM [rising, partial curve].

With `CCCCCCCOc1ccc(OC(=O)c2cccnc2)cc1` the AC50 [1] was 3.16 µM [rising, partial curve].

For `COc1cccc(C(c2nnnn2Cc2ccco2)N2CCN(c3cccc(C)c3C)CC2)c1OC` (configuration not stated), the AC50 [2] was 10 µM [rising, single point] and the AC50 [1] was 12.6 µM [rising, single point].

In the case of `CCc1cccc(C)c1NC(=O)CSc1nc2ccc(N3C(=O)c4ccccc4C3=O)cc2s1`, the AC50 [1] is reported as 15.8 µM [falling, partial curve].

For `COc1cc(/C=C2\COC/C(=C\c3ccc(O)c(OC)c3)C2=O)ccc1O`, the AC50 [2] was 2.51 µM [falling, partial curve, poor fit] and the AC50 [1] was 2.82 µM [falling, partial curve].

With `CCOC(=O)/C=C1\SCC(=O)N1Cc1ccc(Br)cc1` the AC50 [1] was 35.5 µM [rising, single point].

With `CC(C)CC(NC(=O)C(CO)NC(=O)C1CCC(=O)N1)C(N)=O` (configuration not stated) the AC50 [2] was 1 µM [falling, partial curve, poor fit].

With `O=C1CCc2ccc(OCCCCN3CCN(c4cccc(Cl)c4Cl)CC3)cc2N1` the AC50 [2] was 1.78 µM [falling, partial curve, poor fit] and the AC50 [1] was 8.91 µM [rising, partial curve, poor fit].

For `CC(C)(C)c1ccc(C(=O)NNc2ncnc3c2cnn3-c2ccccc2)cc1`, the AC50 [2] was 25.1 µM [falling, partial curve] and the AC50 [1] was 28.2 µM [falling, partial curve].

In the case of `CCCCn1c(SCC(=O)c2ccccc2)nc2ccsc2c1=O`, the AC50 [2] is reported as 14.1 µM [rising, single point] and the AC50 [1] is reported as 31.6 µM [rising, single point].

With `O=C(Nc1nnc(CSCc2ccc(Cl)cc2)s1)c1cccc([N+](=O)[O-])c1` the AC50 [1] was 17.8 µM [rising, partial curve, poor fit].

With `CC(C)Oc1ccc(CN=C(N)N=C(N)N)cc1Cl` the AC50 [1] was 11.2 µM [rising, partial curve, poor fit].

In the case of `Cc1cccc(NC(=S)N(CCCN2CCOCC2)Cc2cn(C)c3ccccc23)c1`, the AC50 [1] is reported as 5.62 µM [rising, full curve, poor fit].

For `Cc1ccc(-n2c(C)cc(/C=N\NC(=O)CC(=O)NC(C)C)c2C)cc1`, the AC50 [2] was 17.8 µM [rising, single point].

In the case of `O=C(C1CCC(Cn2c(=S)[nH]c3ccccc3c2=O)CC1)N1CCOCC1` (configuration not stated), the AC50 [2] is reported as 31.6 µM [rising, single point] and the AC50 [1] is reported as 31.6 µM [rising, single point].

In the case of `CNCc1ccccc1Sc1ccc(O)c(O)c1`, the AC50 [2] is reported as 31.6 µM [rising, single point] and the AC50 [1] is reported as 35.5 µM [rising, single point].

In the case of `OC(CN1CCN(Cc2ccccc2)CC1)Cn1c2ccccc2c2ccccc21` (configuration not stated), the AC50 [1] is reported as 2 µM [rising, partial curve, poor fit].

With `COCCNC(=O)/C(C#N)=C/c1c(F)cccc1Cl` the AC50 [1] was 7.08 µM [rising, full curve, poor fit].

With `c1ccc(CCn2nnnc2C(c2cccs2)N2CCN(Cc3ccc4c(c3)OCO4)CC2)cc1` (configuration not stated) the AC50 [1] was 28.2 µM [rising, single point].

In the case of `O=C(NCc1cccnc1)c1ccc(Cl)c(S(=O)(=O)N2CCCCCC2)c1`, the AC50 [1] is reported as 22.4 µM [rising, single point].

In the case of `c1ccc2c3c([nH]c2c1)C1(CCCCC1)NCC3`, the AC50 [2] is reported as 0.112 µM [falling, single point] and the AC50 [1] is reported as 0.141 µM [falling, single point].

In the case of `CC(C)OC(=O)/C(C#N)=C/c1cn(Cc2ccccc2)c2ccccc12`, the AC50 [1] is reported as 35.5 µM [rising, single point].

In the case of `CC1(C)COC(c2ccc(F)c([N+](=O)[O-])c2)=N1`, the AC50 [2] is reported as 35.5 µM [falling, single point] and the AC50 [1] is reported as 35.5 µM [falling, single point].
